The values that follow come from publication PMC8494447.

Results are given in words; binding and its absence hold for the method and conditions named. Binding seen in cells or lysates may run through a third protein. Binding can be weak; no strength is given. For some of these results: Tags and fused reporters may be left off the sequences shown.

In assay [1] the target is TNFR1, endogenous in HEK293T (human (endogenous in HEK293T)). The experiment in a line: pull-down; cells treated with GST-TNFα (1 μg/ml) for the indicated time, lysed in IP lysis buffer; ligand-bound TNFR1 complex I retrieved on glutathione-Sepharose 4B overnight at 4°C; Western blot; also RIP1-null Jurkat, HSPA13−/− HT29 and reconstituted HT29 cells. (In general: A western blot detects proteins with antibodies after separation by electrophoresis.)

Assay [2] addresses TNFR1, endogenous in Jurkat (human (endogenous in Jurkat)). Described as above.
The target of assay [3] is TNFR1, endogenous in HeLa (human (endogenous in HeLa)). In words: proximity ligation; HeLa cells stably expressing Flag-HSPA13 or Flag-Δ1-24, fixed with 4% formaldehyde, 0.5% Triton X-100; Duolink In Situ Red Starter Kit; confocal microscopy.
The target of assay [4] is TNFR1, endogenous in HT29 (human (endogenous in HT29)). The experiment in a line: pull-down; cells treated with GST-TNFα (1 μg/ml) for the indicated time, lysed in IP lysis buffer; ligand-bound TNFR1 complex I retrieved on glutathione-Sepharose 4B overnight at 4°C; Western blot; also RIP1-null Jurkat, HSPA13−/− HT29 and reconstituted HT29 cells.

B1: HSPA13, endogenous in HEK293T (protein, UniProt P48723 23-471)
chain: QQYLPLPTPKVIGIDLGTTYCSVGVFFPGTGKVKVIPDENGHISIPSMVSFTDNDVYVGYESVELADSNPQNTIYDAKRFIGKIFTAEELEAEIGRYPFKVLNKNGMVEFSVTSNETITVSPEYVGSRLLLKLKEMAEAYLGMPVANAVISVPAEFDLKQRNSTIEAANLAGLKILRVINEPTAAAMAYGLHKADVFHVLVIDLGGGTLDVSLLNKQGGMFLTRAMSGNNKLGGQDFNQRLLQYLYKQIYQTYGFVPSRKEEIHRLRQAVEMVKLNLTLHQSAQLSVLLTVEEQDRKEPHSSDTELPKDKLSSADDHRVNSGFGRGLSDKKSGESQVLFETEISRKLFDTLNEDLFQKILVPIQQVLKEGHLEKTEIDEVVLVGGSTRIPRIRQVIQEFFGKDPNTSVDPDLAVVTGVAIQAGIDGGSWPLQVSALEIPNKHLQKTNFN
With B1, in assay [1], the binding entry is reported as “binds”.

B2: HSPA13, endogenous in Jurkat (protein, UniProt P48723 23-471)
chain: B1 chain
For the molecule B2, the binding entry in assay [2] is “binds”.

B3: Flag-HSPA13 (HeLa, stable) (protein, UniProt P48723 23-471)
chain: B1 chain
On to B3, for which, in assay [3], the binding entry is listed as “binds”.

B4: Flag-HSPA13 (HT29, stable) (protein, UniProt P48723 23-471)
chain: B1 chain
For the molecule B4, the binding result in assay [4] is on record as “binds”.
